Test results reported in publication PMC3792970, “A Single Nucleotide Polymorphism Associated with Hepatitis C Virus Infections Located in the Distal Region of the IL28B Promoter Influences NF-κB-Mediated Gene Transcription”.
For at least one entry, the source does not settle the construct or the ends of the probe. At least one result comes from cells or an extract, where the contact may be indirect. For some of these results: At least one verdict rests on a figure or table, not on a statement of the authors.

Amino acid sequences for entries named in this document (tags omitted).
UniProt Q04206, whole entry: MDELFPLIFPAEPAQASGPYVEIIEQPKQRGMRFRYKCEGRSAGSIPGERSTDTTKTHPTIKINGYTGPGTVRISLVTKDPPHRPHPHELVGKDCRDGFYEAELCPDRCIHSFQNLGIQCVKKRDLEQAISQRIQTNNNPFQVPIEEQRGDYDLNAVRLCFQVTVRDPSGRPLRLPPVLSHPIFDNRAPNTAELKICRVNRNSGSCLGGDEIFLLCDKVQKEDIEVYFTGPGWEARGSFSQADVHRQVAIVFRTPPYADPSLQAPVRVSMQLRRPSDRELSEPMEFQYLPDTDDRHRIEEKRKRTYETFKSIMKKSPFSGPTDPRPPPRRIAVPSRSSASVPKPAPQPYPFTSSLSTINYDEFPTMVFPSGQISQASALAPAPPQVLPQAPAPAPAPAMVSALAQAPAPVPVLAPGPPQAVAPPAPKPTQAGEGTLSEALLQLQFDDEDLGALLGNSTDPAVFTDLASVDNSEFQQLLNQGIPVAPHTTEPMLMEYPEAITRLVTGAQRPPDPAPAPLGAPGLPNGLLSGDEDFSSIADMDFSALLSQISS

Assays:
NF-kB p65 = NF-kB p65 (UniProt Q04206); test: pull-down, western blot; conditions: HEK293T nuclear extract, poly(dI:dC), pull-down: 1X BB, RT 2 h, protein in an extract
[1] = tested on: NF-kB p50 (overexpressed) + NF-kB p65 (overexpressed); test: EMSA; conditions: HeLa nuclear extract 2-6 ul, likely NF-kB dimer band, no supershift, EMSA: 1X BB stated as 50 mM Tris pH 8.0, 250 mM KCl, 2.5 mM EDTA, 0.5% Triton X-100, 62.5% glycerol, 1 mM DTT, 1 ug poly(dI:dC), 10 ul, room temperature 30 min, protein in an extract

## CCCCTGCCCTCAGTGGGCAGCCTCTCCATCCCCTCAGCTCCCTTTCTCTCTGTGA (double strand) [C-C (NFC-C849)]
NF-kB p65
  binding result: binds
[1]; slightly more than G-T (fold only in figure)
  binding result: binds

## CCCCTGCCCTCAGTGGGCAGCCTCTGCATTCCCTCAGCTCCCTTTCTCTCTGTGA (double strand) [G-T (NF813G-T)]
NF-kB p65
  binding result: binds
[1]; slightly less than C-C
  binding result: binds
